Source: article PMC8905163

Columns and labels:
[1] = molecular target: HA-Sd_C (C-terminal part of Scalloped) (Drosophila); test: co-IP; S2R+ cells co-transfected with pUAST plasmids and Actin-GAL4; lysed in RIPA buffer with PMSF 48 h after transfection; standard co-immunoprecipitation; which protein was precipitated not given
[2] = molecular target: HA-Sd_N (N-terminal half of Scalloped) (Drosophila); test: as above

B1: Myc-Sna (Snail), expressed in S2R+ cells (protein, UniProt P08044 1-390)
chain: MAANYKSCPLKKRPIVFVEERLPQTEALALTKDSQFAQDQPQDLSLKRGRDEETQDYQQPEPKRDYVLNLSKTPERNSSSSSNSCLLSPPVEAQDYLPTEIHMRGLTAGTTGYTTATPTTINPFQSAFVMAAGCNPISALWSSYQPHLAAFPSPASSMASPQSVYSYQQMTPPSSPGSDLETGSEPEDLSVRNDIPLPALFHLFDEAKSSSSGASVSSSSGYSYTPAMSASSASVAANHAKNYRFKCDECQKMYSTSMGLSKHRQFHCPAAECNQEKKTHSCEECGKLYTTIGALKMHIRTHTLPCKCPICGKAFSRPWLLQGHIRTHTGEKPFQCPDCPRSFADRSNLRAHQQTHVDVKKYACQVCHKSFSRMSLLNKHSSSNCTITIA
- binding [1]: no binding
- binding [2]: binds

No constants are given. Whether binding was seen depends on the method and setting. In cells and extracts the contact can be indirect. For some assays here: Binding can be weak; no strength is given. Where a sequence is shown, tags or fusion partners need not be part of it.
